Holding throughout (settings): K562; 2-18 h
For experiment [1], the target named is STK38 (UniProt Q15208). As to the kind of experiment: kinase-Nluc reporter destabilization hit call (1 = scored as downregulated) (binary); higher = compound decreases kinase abundance.
The target in experiment [2] is SYK (UniProt P43405). The description is as above.
The target in experiment [3] is TEC (UniProt P42680). Described as above.
The target in experiment [4] is TYK2 (UniProt P29597). Described as above.
The target of experiment [5] is ULK3 (UniProt Q6PHR2). Described as above.
Experiment [6] concerns the target YES1 (UniProt P07947). Described as above.
The target in experiment [7] is ZAK (UniProt Q9NYL2). Described as above.
In experiment [8] the target is ZAP70 (UniProt P43403). The experiment is described as above.
Experiment [9] deals with ABL1 (UniProt P00519). As to the kind of experiment: number of time points (of 5) at which kinase-Nluc abundance scored as decreased, DMSO-normalised (count); higher = more persistent destabilization.
The target of experiment [10] is AKT1 (UniProt P31749). The description is as above.

Protein sequences, listed by entry. Tags and fused reporters are not part of them. Lines headed by an entry give the natural chain unless they say otherwise; changes in a name come on top.
UniProt Q15208: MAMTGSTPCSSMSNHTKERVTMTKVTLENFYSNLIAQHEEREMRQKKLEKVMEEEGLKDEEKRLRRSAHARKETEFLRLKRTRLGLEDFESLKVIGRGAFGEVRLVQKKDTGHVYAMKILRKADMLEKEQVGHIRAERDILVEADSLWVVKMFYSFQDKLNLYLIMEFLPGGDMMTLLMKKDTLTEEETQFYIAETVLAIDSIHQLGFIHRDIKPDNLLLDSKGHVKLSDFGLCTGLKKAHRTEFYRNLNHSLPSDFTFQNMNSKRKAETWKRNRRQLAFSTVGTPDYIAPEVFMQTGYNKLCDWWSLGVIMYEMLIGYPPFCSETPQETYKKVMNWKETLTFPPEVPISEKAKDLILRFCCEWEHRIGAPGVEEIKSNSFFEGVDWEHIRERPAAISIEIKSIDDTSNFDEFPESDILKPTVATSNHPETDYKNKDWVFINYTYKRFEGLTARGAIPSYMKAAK
UniProt P42680: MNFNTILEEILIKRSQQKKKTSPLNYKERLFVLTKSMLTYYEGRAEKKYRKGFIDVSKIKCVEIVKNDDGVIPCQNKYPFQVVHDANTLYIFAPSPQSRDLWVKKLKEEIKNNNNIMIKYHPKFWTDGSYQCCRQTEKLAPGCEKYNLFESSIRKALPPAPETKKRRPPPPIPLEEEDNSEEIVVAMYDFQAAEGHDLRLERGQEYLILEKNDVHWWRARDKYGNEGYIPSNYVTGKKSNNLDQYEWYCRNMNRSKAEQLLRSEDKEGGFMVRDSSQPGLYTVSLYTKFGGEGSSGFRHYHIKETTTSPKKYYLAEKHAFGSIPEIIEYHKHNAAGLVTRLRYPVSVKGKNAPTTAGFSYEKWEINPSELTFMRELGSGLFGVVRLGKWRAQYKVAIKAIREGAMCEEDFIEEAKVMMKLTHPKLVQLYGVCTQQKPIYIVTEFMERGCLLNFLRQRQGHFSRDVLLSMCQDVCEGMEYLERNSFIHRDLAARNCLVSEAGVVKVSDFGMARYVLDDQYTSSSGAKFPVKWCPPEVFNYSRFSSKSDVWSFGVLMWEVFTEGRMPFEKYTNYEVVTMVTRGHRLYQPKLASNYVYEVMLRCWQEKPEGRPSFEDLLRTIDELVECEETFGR
UniProt P29597: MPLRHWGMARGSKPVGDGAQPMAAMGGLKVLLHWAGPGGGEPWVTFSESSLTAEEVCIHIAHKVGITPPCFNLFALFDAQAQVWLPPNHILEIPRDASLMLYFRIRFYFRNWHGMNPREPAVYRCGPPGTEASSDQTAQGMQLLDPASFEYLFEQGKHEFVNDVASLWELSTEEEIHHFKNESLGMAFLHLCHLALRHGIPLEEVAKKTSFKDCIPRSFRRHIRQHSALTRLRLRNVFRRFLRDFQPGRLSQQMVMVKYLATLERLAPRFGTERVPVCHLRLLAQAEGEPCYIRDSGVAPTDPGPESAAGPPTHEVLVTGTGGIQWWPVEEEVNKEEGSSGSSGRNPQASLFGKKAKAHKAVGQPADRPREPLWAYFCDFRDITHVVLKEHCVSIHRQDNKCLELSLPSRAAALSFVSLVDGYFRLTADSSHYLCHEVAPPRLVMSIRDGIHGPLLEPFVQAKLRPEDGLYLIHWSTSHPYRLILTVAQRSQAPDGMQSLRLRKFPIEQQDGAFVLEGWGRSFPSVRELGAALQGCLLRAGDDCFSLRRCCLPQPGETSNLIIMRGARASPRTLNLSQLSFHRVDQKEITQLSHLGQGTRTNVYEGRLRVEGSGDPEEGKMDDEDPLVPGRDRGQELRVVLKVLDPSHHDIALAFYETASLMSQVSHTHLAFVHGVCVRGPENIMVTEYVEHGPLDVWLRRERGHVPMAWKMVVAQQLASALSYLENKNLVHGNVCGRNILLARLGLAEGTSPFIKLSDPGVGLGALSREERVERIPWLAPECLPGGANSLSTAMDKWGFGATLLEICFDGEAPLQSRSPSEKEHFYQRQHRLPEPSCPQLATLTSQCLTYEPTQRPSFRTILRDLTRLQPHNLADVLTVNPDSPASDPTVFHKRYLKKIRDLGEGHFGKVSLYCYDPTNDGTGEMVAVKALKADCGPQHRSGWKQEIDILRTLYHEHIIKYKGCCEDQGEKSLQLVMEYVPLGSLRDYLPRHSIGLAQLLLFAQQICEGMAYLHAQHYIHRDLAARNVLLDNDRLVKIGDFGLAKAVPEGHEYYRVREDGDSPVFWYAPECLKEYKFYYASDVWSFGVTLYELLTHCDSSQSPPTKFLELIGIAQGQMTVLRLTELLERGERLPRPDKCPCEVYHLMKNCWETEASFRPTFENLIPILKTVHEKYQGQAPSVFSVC
UniProt Q6PHR2: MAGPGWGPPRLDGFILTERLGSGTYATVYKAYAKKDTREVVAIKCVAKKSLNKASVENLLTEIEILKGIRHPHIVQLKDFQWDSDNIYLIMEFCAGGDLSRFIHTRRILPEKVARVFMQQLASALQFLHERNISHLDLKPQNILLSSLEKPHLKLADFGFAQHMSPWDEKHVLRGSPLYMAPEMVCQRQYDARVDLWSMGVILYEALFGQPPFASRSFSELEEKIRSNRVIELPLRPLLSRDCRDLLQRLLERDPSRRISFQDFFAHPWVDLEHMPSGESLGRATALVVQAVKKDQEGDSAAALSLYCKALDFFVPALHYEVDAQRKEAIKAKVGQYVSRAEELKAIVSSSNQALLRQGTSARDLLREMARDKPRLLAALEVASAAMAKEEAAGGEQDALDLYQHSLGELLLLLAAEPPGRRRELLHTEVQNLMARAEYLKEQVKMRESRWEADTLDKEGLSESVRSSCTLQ
UniProt P07947, whole entry, looked up: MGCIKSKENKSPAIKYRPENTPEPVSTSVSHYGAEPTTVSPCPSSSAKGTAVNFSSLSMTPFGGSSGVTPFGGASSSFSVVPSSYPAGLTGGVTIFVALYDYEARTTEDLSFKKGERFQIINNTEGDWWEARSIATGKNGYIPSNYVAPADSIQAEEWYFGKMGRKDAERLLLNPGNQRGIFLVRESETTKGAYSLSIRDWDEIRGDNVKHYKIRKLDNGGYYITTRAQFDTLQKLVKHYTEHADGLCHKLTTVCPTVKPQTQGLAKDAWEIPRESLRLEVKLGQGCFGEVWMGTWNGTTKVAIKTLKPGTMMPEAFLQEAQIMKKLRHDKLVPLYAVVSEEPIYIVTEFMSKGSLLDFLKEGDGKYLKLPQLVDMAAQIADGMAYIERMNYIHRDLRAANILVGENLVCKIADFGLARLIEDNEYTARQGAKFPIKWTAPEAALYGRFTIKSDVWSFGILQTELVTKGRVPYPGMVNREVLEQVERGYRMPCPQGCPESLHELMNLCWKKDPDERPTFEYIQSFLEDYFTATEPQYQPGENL
UniProt P43403: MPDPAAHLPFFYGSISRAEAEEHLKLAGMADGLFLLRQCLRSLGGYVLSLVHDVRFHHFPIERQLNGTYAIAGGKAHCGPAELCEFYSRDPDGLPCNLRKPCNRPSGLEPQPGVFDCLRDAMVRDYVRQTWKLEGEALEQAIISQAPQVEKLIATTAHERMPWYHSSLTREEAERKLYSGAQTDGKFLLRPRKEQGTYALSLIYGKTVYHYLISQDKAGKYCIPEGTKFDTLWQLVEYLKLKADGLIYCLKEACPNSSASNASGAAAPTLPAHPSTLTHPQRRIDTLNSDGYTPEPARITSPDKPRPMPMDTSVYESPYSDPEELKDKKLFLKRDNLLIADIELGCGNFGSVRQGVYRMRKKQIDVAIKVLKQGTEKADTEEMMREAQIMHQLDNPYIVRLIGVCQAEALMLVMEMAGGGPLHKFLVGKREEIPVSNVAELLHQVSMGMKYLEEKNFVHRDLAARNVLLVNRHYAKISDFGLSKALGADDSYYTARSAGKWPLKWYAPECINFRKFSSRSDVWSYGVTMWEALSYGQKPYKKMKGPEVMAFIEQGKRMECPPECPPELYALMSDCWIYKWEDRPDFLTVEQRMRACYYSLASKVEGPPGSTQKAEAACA
UniProt P00519, whole entry: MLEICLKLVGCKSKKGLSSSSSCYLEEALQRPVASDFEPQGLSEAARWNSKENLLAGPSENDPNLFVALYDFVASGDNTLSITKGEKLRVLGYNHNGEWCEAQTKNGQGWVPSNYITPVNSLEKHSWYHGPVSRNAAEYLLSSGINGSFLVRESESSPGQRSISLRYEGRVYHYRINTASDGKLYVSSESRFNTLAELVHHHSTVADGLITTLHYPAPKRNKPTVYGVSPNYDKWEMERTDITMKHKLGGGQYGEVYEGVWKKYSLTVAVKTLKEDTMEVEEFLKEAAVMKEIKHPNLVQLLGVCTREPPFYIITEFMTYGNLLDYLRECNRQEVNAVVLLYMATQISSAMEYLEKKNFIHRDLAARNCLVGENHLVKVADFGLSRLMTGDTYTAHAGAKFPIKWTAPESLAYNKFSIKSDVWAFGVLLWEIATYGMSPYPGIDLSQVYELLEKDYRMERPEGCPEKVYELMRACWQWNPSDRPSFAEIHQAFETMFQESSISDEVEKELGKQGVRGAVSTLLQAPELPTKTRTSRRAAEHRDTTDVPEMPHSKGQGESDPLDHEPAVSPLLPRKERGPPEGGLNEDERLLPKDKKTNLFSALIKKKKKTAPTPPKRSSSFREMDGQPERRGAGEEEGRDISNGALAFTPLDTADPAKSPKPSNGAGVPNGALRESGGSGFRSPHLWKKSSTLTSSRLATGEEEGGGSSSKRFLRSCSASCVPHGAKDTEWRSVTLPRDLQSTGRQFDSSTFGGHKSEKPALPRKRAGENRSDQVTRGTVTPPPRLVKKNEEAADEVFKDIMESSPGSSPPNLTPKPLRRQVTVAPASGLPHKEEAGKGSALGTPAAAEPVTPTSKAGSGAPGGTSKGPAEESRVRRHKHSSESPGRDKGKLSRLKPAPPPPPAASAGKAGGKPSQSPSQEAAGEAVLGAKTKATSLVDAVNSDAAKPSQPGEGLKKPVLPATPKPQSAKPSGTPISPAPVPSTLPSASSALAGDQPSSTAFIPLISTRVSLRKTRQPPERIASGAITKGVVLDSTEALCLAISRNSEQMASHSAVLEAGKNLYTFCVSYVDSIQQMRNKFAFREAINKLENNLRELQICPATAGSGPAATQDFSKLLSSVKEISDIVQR
UniProt P31749: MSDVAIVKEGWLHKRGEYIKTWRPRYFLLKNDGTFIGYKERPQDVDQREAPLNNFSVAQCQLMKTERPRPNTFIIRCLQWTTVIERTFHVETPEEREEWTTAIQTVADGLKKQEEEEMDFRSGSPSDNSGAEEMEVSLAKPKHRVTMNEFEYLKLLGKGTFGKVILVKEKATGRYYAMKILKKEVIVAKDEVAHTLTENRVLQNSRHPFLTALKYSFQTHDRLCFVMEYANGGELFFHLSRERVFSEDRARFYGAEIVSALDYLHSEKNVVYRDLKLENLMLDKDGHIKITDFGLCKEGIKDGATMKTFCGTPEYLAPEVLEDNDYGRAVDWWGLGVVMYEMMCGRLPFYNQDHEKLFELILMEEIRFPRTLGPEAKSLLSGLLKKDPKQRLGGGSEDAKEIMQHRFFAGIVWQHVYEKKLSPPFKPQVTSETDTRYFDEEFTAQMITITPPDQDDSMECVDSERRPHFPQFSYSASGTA

Where a name gives a salt, the structure may show the parent alone. This is one part of the list. Hit calls seldom repeat between salt and free forms of one compound.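 In K562 cells expressing nanoluciferase-fused kinases, luminescence was recorded at 4 h intervals between 2 and 18 h, normalized as percent of control with DMSO at 100% and a positive control at 0%. A significant (2 sigma) signal drop marks a time point as decreased. The authors' rule for a hit is not shown and takes in more than the number of time points.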

With `Cn1ncc(Cl)c1-c1cc(C(=O)N[C@H](CN)Cc2ccc(F)c(F)c2)sc1Cl` (10 µM), the “kinase-Nluc reporter destabilization hit call” value in experiment [1], in [2], in experiment [3], in [4], in experiment [5] and in [6] was inactive: 0 in each case. For the same compound, the “kinase-Nluc reporter destabilization hit call” value in experiment [7] and in [8] was inactive: 0 throughout. Besides, the “number of time points” value in experiment [9] came out at 4; in [10], 0.

With `CN(C)c1ncnc2nc[nH]c12` [6-(Dimethylamino)purine] (10 µM), the “kinase-Nluc reporter destabilization hit call” value in experiment [1], in experiment [2], in [3], in experiment [4], in experiment [5] and in [6] was inactive: 0 each time. Moreover, the “kinase-Nluc reporter destabilization hit call” value in experiment [7] and in experiment [8] was inactive: 0 in each case. Moreover, the “number of time points” value in experiment [9] and in experiment [10] was 0 each time.

With `CNC(=O)c1cc(Oc2ccc3nc(N[C@@H]4CCCC[C@H]4O)sc3c2)ccn1` (10 µM), the “kinase-Nluc reporter destabilization hit call” value in experiment [1], in experiment [2], in experiment [3], in experiment [4], in experiment [5] and in [6] was inactive: 0 in each case. The “kinase-Nluc reporter destabilization hit call” value in experiment [7] and in experiment [8] was inactive: 0 each time. Besides, the “number of time points” value in experiment [9] and in experiment [10] was 0 in each case.

For the compound `CC(C)n1cnc2c(Nc3cccc(Cl)c3)nc(NCCO)nc21` (10 µM), the “kinase-Nluc reporter destabilization hit call” value in [1], in experiment [2], in experiment [3], in experiment [4], in experiment [5] and in experiment [6] was inactive: 0 throughout. Besides, the “kinase-Nluc reporter destabilization hit call” value in experiment [7] and in experiment [8] was inactive: 0 throughout. For the same compound, the “number of time points” value in [9] and in experiment [10] was 0 throughout.

As to `COc1ccc(-n2c(C)c([N+](=O)[O-])c3ccc(O)cc32)cc1` (10 µM), the “kinase-Nluc reporter destabilization hit call” value in [1], in experiment [2], in experiment [3], in experiment [4], in experiment [5] and in experiment [6] was inactive: 0 throughout. Moreover, the “kinase-Nluc reporter destabilization hit call” value in experiment [7] and in experiment [8] was inactive: 0 each time. In addition, the “number of time points” value in experiment [9] and in experiment [10] was 0 each time.

Regarding `CC(C)(O)[C@@H]1CC[C@](C)([C@H]2[C@@H](O)C[C@@]3(C)[C@@H]4C[C@H](O[C@@H]5O[C@H](CO)[C@@H](O)[C@H](O)[C@H]5O)[C@H]5C(C)(C)[C@@H](O[C@@H]6OC[C@@H](O)[C@H](O)[C@H]6O[C@@H]6O[C@H](CO)[C@@H](O)[C@H](O)[C@H]6O)CC[C@@]56C[C@@]46CC[C@]23C)O1` [Astragaloside VI] (10 µM), the “kinase-Nluc reporter destabilization hit call” value in [1], in [2], in [3], in experiment [4], in experiment [5] and in experiment [6] was inactive: 0 each time. Moreover, the “kinase-Nluc reporter destabilization hit call” value in [7] and in experiment [8] was inactive: 0 throughout. In addition, the “number of time points” value in experiment [9] and in experiment [10] was 0 each time.

Take `N#C/C(=C(/N)Sc1ccc(N)cc1)c1ccccc1C(F)(F)F` (10 µM): the “kinase-Nluc reporter destabilization hit call” value in [1], in [2], in [3], in experiment [4], in experiment [5] and in [6] was inactive: 0 throughout. The “kinase-Nluc reporter destabilization hit call” value in experiment [7] and in experiment [8] was inactive: 0 each time. Besides, the “number of time points” value in experiment [9] and in experiment [10] was 0 throughout.

In the case of `CN(C)c1nc2c(Br)c(Br)c(Br)c(Br)c2n1CC(=O)O` (10 µM), the “kinase-Nluc reporter destabilization hit call” value in experiment [1], in [2], in experiment [3], in [4], in experiment [5] and in experiment [6] was inactive: 0 in each case. The “kinase-Nluc reporter destabilization hit call” value in experiment [7] and in [8] was inactive: 0 throughout. For the same compound, the “number of time points” value in experiment [9] and in experiment [10] was 0 each time.

Consider `C=C(F)C(=O)N1CCN(c2nc(OC[C@@H]3CCCN3C)nc3c2CCN(c2cccc4cccc(Cl)c24)C3)C[C@@H]1CC#N` (2.5 µM), for which the “kinase-Nluc reporter destabilization hit call” value in experiment [1], in [2], in [3], in experiment [4], in experiment [5] and in experiment [6] was inactive: 0 throughout. The “kinase-Nluc reporter destabilization hit call” value in experiment [7] and in [8] was inactive: 0 in each case. The “number of time points” value in experiment [9] and in experiment [10] was 0 in each case.

Take `CN1C(=O)NC(Cc2c[nH]c3c(Cl)cccc23)C1=O` (racemic) [Necrostatin 2 (racemate)] (10 µM): the “kinase-Nluc reporter destabilization hit call” value in experiment [1], in [2], in experiment [3], in experiment [4], in [5] and in experiment [6] was inactive: 0 throughout. In addition, the “kinase-Nluc reporter destabilization hit call” value in [7] and in [8] was inactive: 0 throughout. In addition, the “number of time points” value in [9] and in experiment [10] was 0 in each case.

For `CCCCNC(=N)NC(=N)N` [Buformin (hydrochloride)] (2.5 µM), the “kinase-Nluc reporter destabilization hit call” value in experiment [1], in experiment [2], in experiment [3], in experiment [4], in [5] and in experiment [6] was inactive: 0 each time. The “kinase-Nluc reporter destabilization hit call” value in experiment [7] and in experiment [8] was inactive: 0 throughout. Further, the “number of time points” value in [9] and in experiment [10] was 0 in each case.

Take `CCOc1nc(Nc2ccc(C(=O)N3CCOCC3)cc2OC)nc2[nH]ccc12` [LRRK2 inhibitor 1] (2.5 µM): the “kinase-Nluc reporter destabilization hit call” value in experiment [1], in experiment [2], in experiment [3], in [4], in experiment [5] and in experiment [6] was inactive: 0 throughout. In addition, the “kinase-Nluc reporter destabilization hit call” value in [7] and in experiment [8] was inactive: 0 throughout. Besides, the “number of time points” value in experiment [9] and in [10] was 0 in each case.

Regarding `O=C1NC(=O)/C(=C/c2ccc(-c3ccc(F)cc3O)o2)S1` (10 µM), the “kinase-Nluc reporter destabilization hit call” value in experiment [1], in experiment [2], in experiment [3], in experiment [4], in experiment [5] and in [6] was inactive: 0 in each case. In addition, the “kinase-Nluc reporter destabilization hit call” value in [7] and in [8] was inactive: 0 in each case. Moreover, the “number of time points” value in [9] and in experiment [10] was 0 throughout.

On to `CCN(C)C(=O)c1ccc2c(C(=Nc3ccc(CN4CCCCC4)cc3)c3ccccc3)c(O)[nH]c2c1` (2.5 µM), for which the “kinase-Nluc reporter destabilization hit call” value in experiment [1], in experiment [2], in experiment [3], in experiment [4], in experiment [5] and in experiment [6] was inactive: 0 in each case. Also, the “kinase-Nluc reporter destabilization hit call” value in experiment [7] and in [8] was inactive: 0 each time. Also, the “number of time points” value in experiment [9] and in [10] was 0 in each case.

Take `COc1cc(C(=O)N2CCC(N3CCN(C)CC3)CC2)ccc1Nc1ncc2c(n1)N(C)c1ccccc1C(=O)N2C` (10 µM): the “kinase-Nluc reporter destabilization hit call” value in experiment [1], in experiment [2], in experiment [3], in experiment [4], in experiment [5] and in [6] was inactive: 0 throughout. In addition, the “kinase-Nluc reporter destabilization hit call” value in experiment [7] and in [8] was inactive: 0 in each case. Moreover, the “number of time points” value in experiment [9] and in experiment [10] was 0 in each case.

The record behind these values is the supplement of paper PMC12823440, “Inhibitors supercharge kinase turnover through native proteolytic circuits” (Nature, 2025).
